Each structure is given as a SMILES string. The structures given here were assigned with low confidence; some may be wrong.

The chains behind the UniProt entries cited, without tags or fusion partners.
UniProt Q9GZT9, whole entry: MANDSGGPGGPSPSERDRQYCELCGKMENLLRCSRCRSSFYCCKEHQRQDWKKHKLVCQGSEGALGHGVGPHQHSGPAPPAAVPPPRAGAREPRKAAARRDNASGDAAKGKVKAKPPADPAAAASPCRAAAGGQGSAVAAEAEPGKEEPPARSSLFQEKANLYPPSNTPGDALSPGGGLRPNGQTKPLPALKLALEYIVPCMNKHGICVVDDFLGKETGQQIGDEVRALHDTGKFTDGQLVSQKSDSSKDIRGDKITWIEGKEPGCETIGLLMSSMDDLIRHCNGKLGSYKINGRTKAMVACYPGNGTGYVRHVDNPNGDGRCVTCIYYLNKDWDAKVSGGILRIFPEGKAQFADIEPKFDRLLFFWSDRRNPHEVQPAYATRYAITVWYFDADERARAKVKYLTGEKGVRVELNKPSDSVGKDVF

The target of this experiment is human PHD2 (Homo sapiens (Human), UniProt Q9GZT9). The experiment is described as follows: Test 2: human PHD2 inhibitory activity, fluorescence polarization assay of HIF-1α peptide proline hydroxylation. It counts as biochemical. The following applies: 20-min incubation at 30° C.

In general, IC50 refers to the concentration needed to halve the response being measured. Turning to `O=C(O)CNC(=O)C1=C(O)CCN(Cc2ccc(Oc3ccc(Cl)cc3)cc2)C1=O` [Ex. 1-265], the IC50 amounted to 52 nM.

For the origin of these results see patent US9422240B2, “Partially saturated nitrogen-containing heterocyclic compound” (TAISHO PHARMACEUTICAL CO., LTD, priority 2012, dated 2016).
